Measurements reported in PubChem BioAssay AID493014 (National Center for Advancing Translational Sciences (NCATS), 2011).
The list shows a part of the results. The main result of the screen is listed elsewhere. These columns were measured beside it and carry no call. Most of these compounds were active or inconclusive in the main read-out, so they are no random draw. Words in brackets tell the shape of the fitted curve; partial curves, single points and poor fits give uncertain potencies.

Assay: qHTS Assay to Find Inhibitors of Chronic Active B-Cell Receptor Signaling
Settings: ABC-DLBCL IkBa-CBG/CBR reporter, luminescence ratio (green luciferase fused to IkBa over red control in TMD8 lymphoma cells), 4 h
Summary of the method: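 TMD8 human ABC-DLBCL cells with doxycycline-inducible IκBα–green luciferase fusion and unfused red luciferase, in 0.5% FBS medium; compounds up to 46 uM, 4 h at 37C. Green/red luminescence ratio, filter-overlap corrected, fitted to concentration-response curves.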

[1] = measured here: CBR red luminescence, cell number
[2] = measured here: IkBa-CBG green luminescence

Structure (SMILES)	AC50 [1]	AC50 [2]
O=C(CCC1CCCCC1)NNC(=O)c1cnccn1	32.6 µM [rising, partial curve, poor fit]	
COc1ccc(NC(=S)NC(=NS(=O)(=O)c2ccc(Cl)cc2)c2ccccc2)cc1	32.6 µM [falling, single point]	
CCOC(=O)N1CCN(C(=O)c2ccc3c(c2)N(Cc2ccc(F)cc2)CCS3)CC1	35.5 µM [falling, single point]	
Cc1ccc2c(c1)N(Cc1cccc(Cl)c1)C(=O)c1cccnc1O2	20.6 µM [falling, single point]	
Cc1ccc(NNC(=O)CCc2ccccc2)c(C)c1	35.5 µM [rising, single point]	
O=C1c2cccc3cc([N+](=O)[O-])cc(c23)C(=O)N1/N=C/c1ccc(O)cc1O	12.6 µM [falling, partial curve, poor fit]	
O=C(c1cccc(C(F)(F)F)c1)C1CCCN(C(=O)CN2CCCC2=O)C1 (stereo not drawn)	14.1 µM [falling, single point]	
Clc1ccc(Cn2nnc3ccccc32)cc1	10 µM [rising, partial curve]	
COc1c(/C=N/NC(=O)[C@H]2C[C@@H]2c2ccccc2)c(CCN(C)C(C)=O)cc2c1OCO2	35.5 µM [falling, single point]	
CN(C1=NC(=O)CS1)c1ccc(O)cc1	14.1 µM [rising, single point]	
CSc1nc(-c2ccccc2)nc(NC(=O)c2ccccc2)c1C(C)=O	8.91 µM [falling, partial curve, poor fit]	
COc1ccc2occ(C(=O)c3cccs3)c2c1	4.11 µM [rising, full curve, poor fit]	
c1ccc2c(N3CCOCC3)nc(-c3ccncc3)nc2c1	8.2 µM [falling, partial curve, poor fit]	
CS/C(Nc1cc(Cl)ccc1Cl)=C(/C#N)C(=O)c1ccco1	14.1 µM [falling, single point]	
O=C(NC(=S)Nc1ccc(Cc2ccncc2)cc1)c1ccc(F)cc1	14.1 µM [falling, single point]	
CCCCOc1ccc(CSC(=N)N)cc1[N+](=O)[O-]	29.1 µM [falling, single point]	
CCCc1ccc(C(C)NC(=S)NCc2ccc(F)cc2)cc1 (stereo not drawn)	15.8 µM [falling, partial curve, poor fit]	
O=[N+]([O-])c1cccc(CSC2=NCCN2S(=O)(=O)c2ccccc2)c1	35.5 µM [falling, single point]	
O=C(c1ccccc1)c1cc2cc(Cl)ccc2[nH]1	0.398 µM [rising, partial curve, poor fit]	
Cc1cccc(N2CCc3c2nc2ccc(Br)cc2c3N)c1	29.1 µM [falling, single point]	29.1 µM [rising, single point]
CCCCc1cc(=O)oc2cc(OS(C)(=O)=O)ccc12	14.6 µM [rising, partial curve]	

Structure (SMILES)	AC50 [1]	AC50 [2]
Cc1c(OC(C(=O)O)c2ccccc2)ccc2c3c(c(=O)oc12)CCC3 (stereo not drawn)	28.2 µM [falling, single point]	
Oc1ccc(NC(=S)N=Nc2c(O)[nH]c3ccccc23)cc1	4.47 µM [falling, full curve]	
CC1CCCN(S(=O)(=O)c2ccc(C(=O)Nc3nnc(-c4ccncc4)o3)cc2)C1 (stereo not drawn)	35.5 µM [falling, single point]	
O=C(O)CSc1ncnc2c1oc1ccccc12	35.5 µM [rising, single point]	
CC(=O)c1c(C)[nH]c(C(=O)Nc2nc(-c3ccccc3)c(C)s2)c1C	4.61 µM [rising, partial curve, poor fit]	
CC(/C=N/NC(=O)Cc1cccs1)=C\c1ccccc1	14.6 µM [rising, partial curve, poor fit]	
C=CCn1c(SCC(=O)N2CCCC2)nc2scc(-c3cccs3)c2c1=O	1.58 µM [falling, partial curve, poor fit]	
Cc1[nH]n(C)c(=O)c1C(=O)c1c(-c2c(Cl)cccc2Cl)noc1C	12.6 µM [falling, single point]	
NS(=O)(=O)c1cccc(NC(=O)c2cc(-c3cccs3)nc3ccccc23)c1	35.5 µM [falling, single point]	
CC(CC(=O)N1CCN(c2cccc(Cl)c2)CC1)S(=O)(=O)c1ccc2c(c1)NC(=O)CO2 (stereo not drawn)	35.5 µM [falling, single point]	
Cc1cc(=O)n2[nH]c(-c3cccnc3)nc2n1	20.6 µM [falling, single point]	
COc1ccc(OCC(=O)N/N=C/c2ccc(N(C)C)cc2)cc1	7.94 µM [falling, partial curve, poor fit]	
CCCCNC(=S)N(CCN(CC)CC)Cc1cc2cc3c(cc2[nH]c1=O)OCCO3		5.01 µM [falling, partial curve, poor fit]
CC(C)CN1C(=S)SC(C)(C)C1n1oc(=O)n(-c2ccc(Cl)cc2)c1=O (stereo not drawn)	29.1 µM [falling, single point]	
NC(=S)N/N=C/c1ccc(-n2nncc2-c2ccc(Cl)cc2)cc1	14.1 µM [falling, single point]	
S=C(Nc1ccccc1)N1CCCCCCC1	0.794 µM [falling, full curve, poor fit]	
Cc1ccc(-c2ccc(/C=C(\C#N)C(N)=S)o2)c([N+](=O)[O-])c1	35.5 µM [falling, single point]	
Cc1sc(NC(=O)/C=C/C(=O)O)c(C(N)=O)c1-c1ccc(C(C)(C)C)cc1	18.4 µM [falling, single point]	
NC(=S)N/N=C\c1ccccc1OCc1ccccc1	29.1 µM [falling, single point]	18.4 µM [falling, single point]
Cn1c(=O)cc(OCCCC(=O)N2CCN(Cc3ccc4c(c3)OCO4)CC2)c2ccccc21	4.47 µM [rising, partial curve]	

Molecules listed so far containing a cyano group:
Structure (SMILES)	AC50 [1]	AC50 [2]
CS/C(Nc1cc(Cl)ccc1Cl)=C(/C#N)C(=O)c1ccco1	14.1 µM [falling, single point]	
Cc1ccc(-c2ccc(/C=C(\C#N)C(N)=S)o2)c([N+](=O)[O-])c1	35.5 µM [falling, single point]	
